{"source": "patent EP0081425B1", "about": "“Pharmaceutical compositions having normolipemic properties and containing compounds of the n-substituted benzenesulfonamide type” (priority 1981, dated 1983)", "origin": "cited, not measured here", "test_system": "hyperlipidémie provoquée par l'administration de TRITON®", "conditions": "oral; stated as background for the choice of dose; cited from earlier work", "note": "For at least one compound, name, drawing or mass did not settle the structure.", "data": [{"molecule": "CCOC(=O)C(C)(C)Oc1ccc(Cl)cc1", "note": "[Clofibrate]", "values": [{"measurement": "dose minimale active", "result": 250, "unit": "mg/kg"}]}]}
